Source: patent US20040235173A1
These are yes or no findings as the source states them, for the method shown. Some results given as binding are weak or reduced against the parent protein; the word gives no strength.

Amino acid sequences for entries named in this document (tags omitted). Residues count along the entry.
UniProt P06731, residues 35-685: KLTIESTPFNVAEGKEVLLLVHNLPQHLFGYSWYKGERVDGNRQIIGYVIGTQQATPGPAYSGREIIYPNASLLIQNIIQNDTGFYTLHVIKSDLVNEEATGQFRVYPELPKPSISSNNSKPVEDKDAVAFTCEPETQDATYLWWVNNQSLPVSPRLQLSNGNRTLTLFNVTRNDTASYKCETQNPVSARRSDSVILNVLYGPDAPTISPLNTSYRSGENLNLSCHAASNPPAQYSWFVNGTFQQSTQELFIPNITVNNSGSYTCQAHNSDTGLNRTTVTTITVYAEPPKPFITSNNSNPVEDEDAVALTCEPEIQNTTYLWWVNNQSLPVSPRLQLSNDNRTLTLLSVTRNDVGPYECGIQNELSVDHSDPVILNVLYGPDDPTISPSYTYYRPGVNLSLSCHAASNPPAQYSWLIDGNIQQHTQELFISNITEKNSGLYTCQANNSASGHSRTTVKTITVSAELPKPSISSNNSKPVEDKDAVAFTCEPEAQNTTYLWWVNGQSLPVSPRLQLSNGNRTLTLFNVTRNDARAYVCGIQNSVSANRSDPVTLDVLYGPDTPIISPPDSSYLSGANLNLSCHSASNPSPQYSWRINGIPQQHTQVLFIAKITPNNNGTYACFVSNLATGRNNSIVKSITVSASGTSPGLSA

Molecular target: CEA (UniProt P06731)
Test: CEA binding ELISA of culture media from transduced cell lines

binding: binds
B1: MN14 antibody (antibody, V domains shown)
VH: EVQLVESGGGVVQPGRSLRLSCSASGFDFTTYWMSWVRQAPGKGLEWIGEIHPDSSTINYAPSLKDRFTISRDNAKNTLFLQMDSLRPEDTGVYFCASLYFGFPWFAYWGQGTPVTVSS
VL: DIQLTQSPSSLSASVGDRVTITCKASQDVGTSVAWYQQKPGKAPKLLIYWTSTRHTGVPSRFSGSGSGTDFTFTISSLQPEDIATYYCQQYSLYRSFGQGTKVEIKR
